Experimental data reported in the supplement of paper PMC10403144.
The other results are listed elsewhere or left out.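 Rule for the calls: active = mitochondrial OCR inhibition above 30% at 1 uM; inactive = 30% or less.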 Repeats are few or missing, and single values can be far off.

System: Toxoplasma gondii RH tachyzoites
Experiment: inhibition of mitochondrial O2 consumption rate (% inhibition (relative to pre-injection OCR and atovaquone/antimycin A control)); higher = stronger ETC inhibition
Details: 1 µM; injection port (sequential injection order): A

| SMILES | inhibition of mitochondrial O2 consumption rate |
| --- | --- |
| c1coc(CNc2nc(N3CCCCC3)nc3ccccc23)c1 | inactive: -2.89 |
| CC(C)(C)OC(=O)N1CCN(c2nccc(-c3ccc(-c4ccc(Cl)cc4)s3)n2)CC1 | inactive: -12.1 |
| Brc1c(-c2ccc3c(c2)OCO3)nc2ncccn12 | inactive: 2.02 |
| COc1ccc(-c2cncc3ccc(C(=O)NCCCn4ccnc4)nc23)cc1 | inactive: -8.3 |
| CN1CCC(NCc2cccc(-c3ccc(S(=O)(=O)NCc4ccccc4)cc3)c2)CC1 | inactive: -6.06 |
| Brc1cncc(-c2cc(NCCCn3ccnc3)nc(-c3ccccc3)n2)c1 | inactive: -2.68 |
| CC1CCCCN1C(=O)NCCc1coc(-c2ccc(F)cc2)n1 (stereo not drawn) | inactive: 2.28 |
| COc1ccc(C2=NN(C3CCCCCC3)C(=O)C2(C)C)cc1OCCCCOc1ccc(-c2nn[nH]n2)cc1 | inactive: -3.15 |
| O=C(CCC1CCCCC1)Nc1cccc(-c2nnc(-c3ccco3)o2)c1 | inactive: 11.6 |
| CC1=NN(c2nc3ccccc3s2)C(=O)C1Cc1cccc2ccccc12 (stereo not drawn) | inactive: 0.116 |
| COc1cccc2c(C)nc(N=C(N)N)nc12 | inactive: -3.95 |
| Clc1ccc(CCNc2cc(-c3ccccc3)nc3ncnn23)cc1 | inactive: 5.23 |
| OCc1ccc(-c2cncc(Nc3cccc(Cl)c3)c2)cc1 | inactive: 3.83 |
| O=C(NCc1ccoc1)N1CCN(Cc2ccc3c(c2)OCO3)CC1 | inactive: 5.24 |
| O=C(Nc1nc(-c2ccccn2)cs1)c1cncn1-c1ccccc1 | inactive: -3.98 |

Same assay, conditions: 1 µM; injection port (sequential injection order): B

| SMILES | inhibition of mitochondrial O2 consumption rate |
| --- | --- |
| CCC(NC(=O)c1ccccc1NC(=O)c1ccc(C)cc1)C(=O)OC (stereo not drawn) | inactive: 1.47 |
| CN(C)c1cc(NC(=O)Nc2ccccc2)c2ccccc2n1 | inactive: 3.23 |
| COc1cccc(-c2cc3c(Nc4cccnc4)nccc3[nH]2)c1 | inactive: -15.8 |
| CCS(=O)(=O)N(Cc1ccco1)Cc1cc2ccc(C)cc2nc1O | inactive: 3.98 |
| Nc1ncc(Br)cc1-c1nc2cc(Cl)cnc2[nH]1 | inactive: -10.2 |
| C[C@H]1COc2c(N3CCN(C)CC3)c(F)cc3c(=O)c(C(=O)O)cn1c23 | inactive: -3.79 |
| CCOc1ccc2cc(-c3nn(C(C)(C)C)c(N)c3C(N)=O)cnc2c1 | active: 42.2 |
| O=C(C1CCCCC1)N1CC(=O)N2CCc3ccccc3C2C1 (stereo not drawn) | inactive: 5.42 |
| Cc1cccc(NC(=O)c2cc(S(=O)(=O)N(C)c3ccc(F)cc3)ccc2Cl)n1 | inactive: -3.88 |

Same assay, conditions: 1 µM; injection port (sequential injection order): C

| SMILES | inhibition of mitochondrial O2 consumption rate |
| --- | --- |
| CN1CCC(c2cc(-c3ccncc3)c(-c3ccc(F)cc3)[nH]2)CC1 | inactive: -6.29 |
| CC1(COc2ccc(N3CCC(Oc4ccc(OC(F)(F)F)cc4)CC3)cc2)Cn2cc([N+](=O)[O-])nc2O1 (stereo not drawn) | inactive: -16.7 |
| Cc1cc(OCC(=O)Nc2ccc(C(C)C)cc2)n(C)c(=O)c1C#N | inactive: -9.17 |
| CC(=O)N1CCc2cc3nc(C)cc(C)c3cc21 | inactive: 6.55 |
| COc1ccc(Cn2cnc3c(-c4ccco4)nc(Cl)nc32)cc1 | inactive: 2.21 |
| CCc1ccc([C@@H]2C[C@H](C(F)(F)F)n3ncc(C(=O)NCc4ccc(OC)cc4)c3N2)cc1 | inactive: -18.4 |
| CC(Oc1ccccc1)C(=O)Nc1nc(-c2ccccn2)cs1 (stereo not drawn) | inactive: 5.27 |
| CC1CCCN(C(=O)C(C)Nc2cc(Cl)ccc2N2CCOCC2)C1 (stereo not drawn) | inactive: -14.1 |
| COc1ccc(-c2cnc3cnc(-c4cccc(OC(C)C)c4)cn23)cc1 | inactive: -10.1 |
| Cc1cc(OCC(=O)NCc2ccccc2)c2cc(Br)ccc2n1 | inactive: 0.635 |
| CC(c1cc(Cl)cc(Cl)c1)N(C)c1ncc2c(N)nc(N)nc2n1 (stereo not drawn) | inactive: -13.6 |
| NCCN(C(=O)c1ccc(Cl)cc1Cl)c1ccc(OCc2ccc(Cl)cc2)cc1 | inactive: -1.68 |
| Cc1ccc(S(=O)(=O)Nc2ccc(CN3CCN(C(=O)c4cccc(C#N)c4)CC3)cc2)cc1 | inactive: -7.99 |
| OC[C@H]1O[C@@H](n2c3ccc(Cl)cc3c3c(-c4cc5ccccc5o4)ncnc32)C(O)[C@H]1O (stereo partly drawn) | inactive: -0.666 |

Arranged by count of non-hydrogen atoms (descending): part of the list above

| SMILES | inhibition of mitochondrial O2 consumption rate |
| --- | --- |
| COc1ccc(-c2cnc3cnc(-c4cccc(OC(C)C)c4)cn23)cc1 | inactive: -10.1 |
| Cc1cc(OCC(=O)NCc2ccccc2)c2cc(Br)ccc2n1 | inactive: 0.635 |
| CC(Oc1ccccc1)C(=O)Nc1nc(-c2ccccn2)cs1 (stereo not drawn) | inactive: 5.27 |
